According to US20190336544A1:
No constants are given. Whether binding was seen depends on the method and setting. Some results given as binding are weak or reduced against the parent protein; the word gives no strength. For part of these data: Where a sequence is shown, tags or fusion partners need not be part of it. One block for each molecule: values may come before it.

Amino acid sequences for entries named in this document (tags omitted). Residues count along the entry.
UniProt P27548, residues 112-260: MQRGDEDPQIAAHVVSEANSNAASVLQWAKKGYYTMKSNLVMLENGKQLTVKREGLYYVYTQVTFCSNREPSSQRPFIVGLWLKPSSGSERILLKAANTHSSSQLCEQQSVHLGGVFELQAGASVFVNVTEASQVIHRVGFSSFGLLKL

Legend:
[1] = target: T1, mCD40, coated on ELISA plates (mouse) (UniProt P27512); experiment: ELISA; mCD40 coated
T1 sequence (looked up): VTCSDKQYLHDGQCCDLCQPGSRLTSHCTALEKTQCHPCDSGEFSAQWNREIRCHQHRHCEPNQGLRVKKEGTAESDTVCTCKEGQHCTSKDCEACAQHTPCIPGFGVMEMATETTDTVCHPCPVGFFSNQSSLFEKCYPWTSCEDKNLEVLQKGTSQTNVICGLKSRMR

[2] = target: T2, mouseCD47, coated on ELISA plates (mouse) (UniProt Q61735); experiment: ELISA; mCD47 coated
T2 sequence (looked up): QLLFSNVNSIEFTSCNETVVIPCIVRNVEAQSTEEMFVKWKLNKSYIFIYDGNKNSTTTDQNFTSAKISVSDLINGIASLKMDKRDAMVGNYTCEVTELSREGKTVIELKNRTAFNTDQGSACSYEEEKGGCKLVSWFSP

[3] = target: T3, CD47 on mouse CT26 cells (mouse) (UniProt Q61735); experiment: flow cytometry on CT26 cells (FIG. 27)
T3 sequence (looked up): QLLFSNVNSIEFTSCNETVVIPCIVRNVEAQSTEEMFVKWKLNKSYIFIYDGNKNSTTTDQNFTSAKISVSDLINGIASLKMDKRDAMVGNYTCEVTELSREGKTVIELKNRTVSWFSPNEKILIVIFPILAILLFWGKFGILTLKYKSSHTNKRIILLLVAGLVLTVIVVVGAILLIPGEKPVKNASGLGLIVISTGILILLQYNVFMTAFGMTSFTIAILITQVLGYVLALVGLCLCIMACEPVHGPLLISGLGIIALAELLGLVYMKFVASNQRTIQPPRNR

[4] = target: T3, CD47 on mouse CT26 cells (mouse); experiment: flow cytometry on CT26 cells, 10 µL of 10x concentrated supernatant
[5] = target: T3, CD47 on mouse CT26 cells (mouse); experiment: competition flow cytometry on CT26 cells (FIG. 29)
[6] = target: T3, CD47 on mouse CT26 cells (mouse); experiment: competition flow cytometry on CT26 cells; competitor of the secreted SIRPalpha

binding [1]: binds
Molecule: secreted mCD40L2 (112-260)-V5-HIS (SYN3367) (from UniProt P27548 112-260) (ligand)

binding [2]: binds
binding [3]: binds
binding [4]: binds
B1: secreted WT mSIRPα (FLAG-mSIRPa(32-373)-V5-HIS, SYN2996) (receptor, mouse, UniProt P97797 32-373, looked up, not shown: small tags and cut ends)
chain: KELKVTQPEKSVSVAAGDSTVLNCTLTSLLPVGPIRWYRGVGPSRLLIYSFAGEYVPRIRNVSDTTKRNNMDFSIRISNVTPADAGIYYCVKFQKGSSEPDTEIQSGGGTEVYVLAKPSPPEVSGPADRGIPDQKVNFTCKSHGFSPRNITLKWFKDGQELHPLETTVNPSGKNVSYNISSTVRVVLNSMDVNSKVICEVAHITLDRSPLRGIANLSNFIRVSPTVKVTQQSPTSMNQVNLTCRAERFYPEDLQLIWLENGNVSRNDTPKNLTKNTDGTYNYTSLFLVNSSAHREDVVFTCQVKHDQQPAITRNHTVLGFAHSSDQGSMQTFPDNNATHNWN

binding [5]: binds
binding [6]: binds
B2: recombinant SIRPα (Rndsystems) (receptor, mouse, UniProt P97797 32-373, looked up)
chain: B1 chain
